Measured values published in patent publication US20030100503A1.
These are yes or no findings as the source states them, for the method shown. Some binding calls cover weakened binding; strength is not graded here. Where a sequence is shown, tags or fusion partners need not be part of it.

What was measured:
Conditions in all cases: remark: other sources report otherwise
[1] = target: T1, recombinant His-tagged wild type murine Mts1/S100A4 protein (murine), P07091; assay: size-exclusion chromatography, self-association
[2] = target: T1, recombinant His-tagged wild type murine …; assay: yeast two-hybrid, self-association (wt as reference)
[3] = target: T1, recombinant His-tagged wild type murine …; assay: dynamic light scattering, self-association at 1.5 mg/ml

Measured: binding

B1: recombinant His-tagged wild type murine Mts1/S100A4 protein, P07091 1-101 (protein, not shown: small tags and cut ends)
chain: MARPLEEALDVIVSTFHKYSGKEGDKFKLNKTELKELLTRELPSFLGKRTDEAAFQKVMSNLDSNRDNEVDFQEYCVFLSCIAMMCNEFFEGCPDKEPRKK
binds: all assays above
